Results taken from PubChem BioAssay (EPA / NIEHS).
For some assays here: The hits were mostly taken out for another list; the other results follow. Records with an inconclusive call do not appear. The entries are a selection whose mix differs from that of the whole data set. Active and inactive are the calls of the source. How the source made its calls, unless noted: active means hit-call score of the fitted dose curve at least 0.9, where 1 is the maximum; inactive means score below 0.9.

Amino acid sequences for entries named in this document (tags omitted). A change or cut given only in a name is not applied to a line headed by its entry.
UniProt Q96RI1: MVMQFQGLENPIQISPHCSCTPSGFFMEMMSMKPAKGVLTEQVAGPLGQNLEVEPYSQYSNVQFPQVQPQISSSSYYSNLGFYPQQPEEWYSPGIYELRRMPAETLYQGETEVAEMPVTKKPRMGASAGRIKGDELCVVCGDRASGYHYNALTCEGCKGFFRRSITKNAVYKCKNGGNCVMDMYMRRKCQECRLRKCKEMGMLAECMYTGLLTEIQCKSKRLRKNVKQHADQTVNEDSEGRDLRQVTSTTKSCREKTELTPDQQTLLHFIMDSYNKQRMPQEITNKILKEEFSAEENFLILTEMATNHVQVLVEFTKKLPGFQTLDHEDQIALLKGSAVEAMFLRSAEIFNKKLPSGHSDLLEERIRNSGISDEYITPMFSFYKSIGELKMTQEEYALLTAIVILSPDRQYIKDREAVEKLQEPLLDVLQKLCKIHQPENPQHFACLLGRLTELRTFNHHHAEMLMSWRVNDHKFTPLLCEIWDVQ
UniProt Q16656: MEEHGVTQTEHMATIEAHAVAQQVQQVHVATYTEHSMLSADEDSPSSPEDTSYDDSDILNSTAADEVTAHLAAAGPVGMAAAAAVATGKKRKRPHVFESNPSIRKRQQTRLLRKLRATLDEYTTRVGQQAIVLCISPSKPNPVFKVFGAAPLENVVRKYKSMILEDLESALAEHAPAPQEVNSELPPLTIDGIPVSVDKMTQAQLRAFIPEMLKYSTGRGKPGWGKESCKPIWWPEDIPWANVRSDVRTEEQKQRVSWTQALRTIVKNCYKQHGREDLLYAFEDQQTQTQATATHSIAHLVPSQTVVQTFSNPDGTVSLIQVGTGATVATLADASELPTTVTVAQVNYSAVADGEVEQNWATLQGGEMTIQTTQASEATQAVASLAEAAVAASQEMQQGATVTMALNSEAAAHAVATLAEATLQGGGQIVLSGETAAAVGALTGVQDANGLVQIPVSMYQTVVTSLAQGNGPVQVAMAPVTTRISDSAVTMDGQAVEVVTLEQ
UniProt P11511: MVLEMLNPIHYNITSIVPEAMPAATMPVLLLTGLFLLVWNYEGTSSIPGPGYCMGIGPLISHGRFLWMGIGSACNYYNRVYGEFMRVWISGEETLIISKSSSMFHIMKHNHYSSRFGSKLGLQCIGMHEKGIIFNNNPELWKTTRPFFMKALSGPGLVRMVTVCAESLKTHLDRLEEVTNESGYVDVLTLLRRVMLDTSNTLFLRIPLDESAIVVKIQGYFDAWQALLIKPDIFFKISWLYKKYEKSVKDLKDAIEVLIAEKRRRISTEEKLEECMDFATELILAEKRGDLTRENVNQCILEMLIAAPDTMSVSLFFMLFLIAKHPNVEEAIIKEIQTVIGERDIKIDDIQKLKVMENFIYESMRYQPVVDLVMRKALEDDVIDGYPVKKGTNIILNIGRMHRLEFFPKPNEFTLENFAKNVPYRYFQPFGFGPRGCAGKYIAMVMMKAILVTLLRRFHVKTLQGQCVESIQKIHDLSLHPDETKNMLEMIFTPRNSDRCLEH
UniProt P04798: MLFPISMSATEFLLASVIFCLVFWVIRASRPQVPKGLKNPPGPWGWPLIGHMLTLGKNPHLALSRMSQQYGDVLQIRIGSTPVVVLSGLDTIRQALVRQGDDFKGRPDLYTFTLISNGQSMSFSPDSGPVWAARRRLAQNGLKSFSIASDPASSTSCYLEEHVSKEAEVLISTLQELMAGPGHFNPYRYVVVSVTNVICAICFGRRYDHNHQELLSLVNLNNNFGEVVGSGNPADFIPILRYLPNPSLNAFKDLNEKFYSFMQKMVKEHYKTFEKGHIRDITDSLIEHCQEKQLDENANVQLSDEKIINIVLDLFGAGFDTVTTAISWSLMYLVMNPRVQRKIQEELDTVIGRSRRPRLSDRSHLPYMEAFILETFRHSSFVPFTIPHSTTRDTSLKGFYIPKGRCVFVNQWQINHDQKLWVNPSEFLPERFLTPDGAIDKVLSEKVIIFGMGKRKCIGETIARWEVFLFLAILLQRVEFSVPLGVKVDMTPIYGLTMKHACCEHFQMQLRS
UniProt P08588, whole entry, looked up: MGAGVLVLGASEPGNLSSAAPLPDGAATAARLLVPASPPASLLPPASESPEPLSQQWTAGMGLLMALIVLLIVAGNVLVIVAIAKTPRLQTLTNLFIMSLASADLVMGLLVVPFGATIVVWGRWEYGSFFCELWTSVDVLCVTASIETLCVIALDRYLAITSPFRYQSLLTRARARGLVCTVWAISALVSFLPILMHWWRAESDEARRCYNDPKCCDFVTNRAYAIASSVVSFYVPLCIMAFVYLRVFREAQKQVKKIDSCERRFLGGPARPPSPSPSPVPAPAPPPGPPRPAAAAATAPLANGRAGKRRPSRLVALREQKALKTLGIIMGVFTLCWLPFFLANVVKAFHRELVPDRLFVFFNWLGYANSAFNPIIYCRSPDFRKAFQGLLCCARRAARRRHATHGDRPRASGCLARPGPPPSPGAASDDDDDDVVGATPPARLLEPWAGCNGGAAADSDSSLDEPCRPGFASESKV
UniProt O97775: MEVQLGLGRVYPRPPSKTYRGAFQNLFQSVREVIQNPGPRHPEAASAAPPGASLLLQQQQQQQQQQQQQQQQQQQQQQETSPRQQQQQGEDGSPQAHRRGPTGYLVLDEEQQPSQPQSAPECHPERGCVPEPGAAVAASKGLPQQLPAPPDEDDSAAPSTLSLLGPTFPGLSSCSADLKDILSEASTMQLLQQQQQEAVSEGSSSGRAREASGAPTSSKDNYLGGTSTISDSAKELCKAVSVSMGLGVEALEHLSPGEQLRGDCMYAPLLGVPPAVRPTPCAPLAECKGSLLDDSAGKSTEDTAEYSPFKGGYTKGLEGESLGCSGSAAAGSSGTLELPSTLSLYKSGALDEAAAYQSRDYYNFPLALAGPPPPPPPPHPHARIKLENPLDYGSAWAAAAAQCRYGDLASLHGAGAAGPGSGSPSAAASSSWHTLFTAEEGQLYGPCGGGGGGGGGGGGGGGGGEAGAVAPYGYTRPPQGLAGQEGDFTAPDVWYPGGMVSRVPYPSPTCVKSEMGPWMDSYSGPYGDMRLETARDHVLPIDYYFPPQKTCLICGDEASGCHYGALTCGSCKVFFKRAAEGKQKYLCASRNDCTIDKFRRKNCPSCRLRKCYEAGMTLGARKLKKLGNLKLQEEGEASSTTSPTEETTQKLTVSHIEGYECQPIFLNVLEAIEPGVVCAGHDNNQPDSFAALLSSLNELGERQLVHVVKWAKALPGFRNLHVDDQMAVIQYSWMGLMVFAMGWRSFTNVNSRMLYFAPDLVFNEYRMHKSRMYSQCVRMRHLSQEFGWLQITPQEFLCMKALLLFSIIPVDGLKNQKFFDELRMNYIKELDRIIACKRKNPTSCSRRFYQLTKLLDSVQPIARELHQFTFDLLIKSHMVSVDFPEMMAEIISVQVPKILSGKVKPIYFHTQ
UniProt Q60492, whole entry, looked up: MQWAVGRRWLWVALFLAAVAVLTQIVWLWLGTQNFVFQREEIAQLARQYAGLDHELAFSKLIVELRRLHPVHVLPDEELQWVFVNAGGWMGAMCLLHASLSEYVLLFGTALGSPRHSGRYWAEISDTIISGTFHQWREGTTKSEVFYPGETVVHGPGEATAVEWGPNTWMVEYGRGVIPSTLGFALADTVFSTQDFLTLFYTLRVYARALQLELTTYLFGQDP

Columns and labels:
[1] = APR_HepG2_CellCycleArrest_24hr: Apredica 24-hour HepG2 Assay for Cell Cycle Arrest (AID 2282905); conditions: imaging, actives raise or lower the signal;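 further: cell cycle arrest scored as ratio of 2N to 4N nuclear DNA content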
Outline: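 After 24 h exposure at 0.39–200 uM in 0.5% DMSO, fixed cells received Hoechst 33342 staining. Imaging quantified per-nucleus DNA content; gain or loss fitted against DMSO controls.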

[2] = APR_HepG2_NuclearSize_24hr: Apredica 24-hour HepG2 Assay for Nuclear Size (AID 2282907); conditions: high-content imaging, actives raise or lower the signal
Outline: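 Nuclear size from Hoechst 33342-stained, formaldehyde-fixed HepG2 nuclei imaged by high-content microscopy, after 24 h dosing at ten concentrations from 0.39 to 200 uM in 0.5% DMSO; gain or loss relative to DMSO baseline.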

[3] = APR_HepG2_MicrotubuleCSK_24hr: Apredica 24-hour HepG2 Assay for Microtubule CSK Stabilty (AID 2282909); conditions: HepG2 microtubule cytoskeleton imaging, actives raise or lower the signal
Outline: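 Fixed HepG2 cells were stained for alpha-tubulin and imaged after 24 hr exposure to ten concentrations spanning 0.39–200 uM in 0.5% DMSO. Signal change was fitted in both directions relative to DMSO; taxol was the positive control.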

[4] = APR_HepG2_CellCycleArrest_72hr: Apredica 72-hour HepG2 Assay for Cell Cycle Arrest (AID 2282914); conditions: high-content imaging, actives raise or lower the signal
Outline: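 HepG2 cells were exposed to compounds at 0.39–200 uM (0.5% v/v DMSO final, duplicates) for 72 hr, fixed in 3.7% formaldehyde, permeabilized and stained with Hoechst 33342. Nuclear DNA content was quantified by high-content imaging; gain or loss of signal was fitted bidirectionally against DMSO.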

[5] = APR_HepG2_MicrotubuleCSK_72hr: Apredica 72-hour HepG2 Assay for Microtubule CSK Stabilty (AID 2282919); conditions: HepG2 microtubule cytoskeleton, high-content imaging, actives raise or lower the signal
Outline: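 High-content imaging of alpha-tubulin staining in fixed HepG2 cells after 72 hr treatment with ten concentrations from 0.39 to 200 uM (0.5% DMSO). Fitting was bidirectional against DMSO; taxol served as positive control.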

[6] = APR_HepG2_NuclearSize_72hr: Apredica 72-hour HepG2 Assay for Nuclear Size (AID 2282925); conditions: high-content imaging, actives raise or lower the signal
Outline: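 Nuclear size was read by high-content imaging of Hoechst 33342 stain after formaldehyde fixation. Compounds ran 72 h on HepG2 at 0.39 to 200 uM, with final DMSO 0.5% v/v. Curves fitted both directions relative to DMSO control.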

[7] = molecular target: Bile acid receptor (Homo sapiens) (UniProt Q96RI1); experiment: ATG_IR1_CIS: Attagene CIS-FACTORIAL HepG2 Assay for human Nuclear Receptor Subfamily 1 Group H Member 4 (NR1H4), IR1 submotif (AID 2282946); conditions: IR1 reporter transcription, actives raise or lower the signal
Outline: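 HepG2 cells transiently transfected with multiplexed cis-element reporter units read endogenous transcription factor activity. After 24 h compound exposure, reporter mRNA was quantified by RT-PCR, fluorescent labelling, HpaI digestion and capillary electrophoresis; bidirectional fitting versus DMSO baseline.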

[8] = molecular target: Nuclear respiratory factor 1 (Homo sapiens) (UniProt Q16656); experiment: ATG_NRF1_CIS: Attagene CIS-FACTORIAL HepG2 Assay for human Nuclear Respiratory Factor 1 (NRF1) Orphan Gene (AID 2282987); conditions: HepG2 NRF1 cis-element reporter, Attagene multiplex; actives raise or lower the signal
Outline: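 Using DMSO as baseline, gain- or loss-of-signal was fitted for reporter mRNA levels in HepG2 cells transiently transfected with cis-regulated reporter units. Samples were taken 24 h after dosing and read by RT-PCR with capillary electrophoresis.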

[9] = ATG_NFI_CIS: Attagene CIS-FACTORIAL HepG2 Assay for human Nuclear Factor I (NFI) (AID 2282989); conditions: HepG2 cis-regulatory reporter, NFI response element transcription; actives raise or lower the signal
Outline: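 HepG2 cells transiently transfected with cis-element-driven multiplexed reporter transcription units, dosed for 24 h. Reporter mRNA quantified by RT-PCR, fluorescent labelling, HpaI digestion and capillary electrophoresis; bidirectional fit versus DMSO baseline.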

[10] = ATG_NF_kB_CIS: Attagene CIS-FACTORIAL HepG2 Assay for human Nuclear Factor Kappa B (NF-kB) (AID 2282991); conditions: HepG2 Attagene cis-factorial NF-kB reporter mRNA; actives raise or lower the signal
Outline: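 Endpoint from a 52-component multiplexed HepG2 reporter panel: cis-regulated transcription units transiently transfected, 24 h dosing, reporter mRNA quantified by RT-PCR and capillary electrophoresis, scored as increase or decrease against DMSO.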

[11] = molecular target: human CYP19A1, CYP19A1 (gene 1588) (UniProt P11511); experiment: NVS_ADME_hCYP19A1: NovaScreen (NVS) CYP450-related Enzyme Activity (ADME) Assay for human CYP19A1 (AID 2283098; active means hit-call score of the fitted dose curve at least 0.9, where 1 is the maximum)
Outline: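 Primary testing was in duplicate at a single 10 uM concentration, with actives followed up in concentration-response series. Fluorescence read-out of recombinant enzyme activity at 0.5 h, cell-free. Acetonitrile was the negative-control baseline.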

[12] = molecular target: human CYP1A1, CYP1A1 (gene 1543) (UniProt P04798); experiment: NVS_ADME_hCYP1A1: NovaScreen (NVS) CYP450-related Enzyme Activity (ADME) Assay for human CYP1A1 (AID 2283100; active means hit-call score of the fitted dose curve at least 0.9, where 1 is the maximum)
Outline: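 Cell-free fluorescence assay of recombinant human CYP1A1 activity with a specific substrate, read 1 h after dosing. Compounds were screened in duplicate at 10 uM, then hits tested in concentration-response up to 20 uM; acetonitrile served as baseline.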

[13] = molecular target: human Adrenergic, Beta 1 Receptor (Adrb1), ADRB1 (gene 153) (UniProt P08588); experiment: NVS_GPCR_hAdrb1: NovaScreen (NVS) G Protein-Coupled Receptor Assay for human Adrenergic, Beta 1 Receptor (Adrb1) (AID 2283258; active means hit-call score of the fitted dose curve at least 0.9, where 1 is the maximum)
Outline: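 Membranes/protein extracted from human neuroepithelioma cells, radioligand competition binding read by filtration and scintillation 2 h post-dose. Single 25 uM duplicate screen, then concentration-response follow-up; DMSO as negative control.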

[14] = tested on: 5-hydroxytryptamine receptor 2C (pig); experiment: NVS_GPCR_p5HT2C: NovaScreen (NVS) G Protein-Coupled Receptor Assay for pig Serotonin, 5-Hydroxytryptamine Receptor 2C (5HT2C) (AID 2283288; active means hit-call score of the fitted dose curve at least 0.9, where 1 is the maximum)
[15] = molecular target: chimpanzee Androgen Receptor (AR), AR (gene 747460) (UniProt O97775); experiment: NVS_NR_cAR: NovaScreen (NVS) Nuclear Receptor Binding Assay for chimpanzee Androgen Receptor (AR) (AID 2283346; active means hit-call score of the fitted dose curve at least 0.9, where 1 is the maximum;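 further: radioligand displacement from AR measured by scintillation counting in a cell-free assay; a loss of bound radioligand signal versus DMSO counts as binding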)
Outline: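 Cell-free competition binding with insect-cell (Sf9/Sf21) extracted chimpanzee AR; scintillation signal from lysate at 72 h. Screened in duplicate at 25 uM, then concentration-response for actives; fitting relative to DMSO.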

[16] = molecular target: Bile acid receptor (Homo sapiens) (UniProt Q96RI1); experiment: NVS_NR_hFXR_Antagonist: NovaScreen (NVS) Nuclear Receptor Binding Assay for human Farnesoid X Receptor Antagonism (FXR) (AID 2283350; active means hit-call score of the fitted dose curve at least 0.9, where 1 is the maximum)
Outline: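 Antagonist-format time-resolved FRET binding assay with extracted human receptor protein, read 1 hour after compound addition. Compounds first screened at 25 uM in duplicate, then actives tested in concentration series, with loss of signal relative to DMSO.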

[17] = molecular target: guinea pig Sigma Receptor, Non-selective Binding, SIGMAR1 (gene 100135589) (UniProt Q60492); experiment: NVS_OR_gSIGMA_NonSelective: NovaScreen (NVS) Nuclear Receptor Binding Assay for guinea pig Sigma Receptor, Non-selective Binding (AID 2283367; active means hit-call score of the fitted dose curve at least 0.9, where 1 is the maximum)
Experimental: NVS_OR_gSIGMA_NonSelective is a biochemical, single-readout assay that uses extracted gene-proteins from Guinea pig brain membranes in a tissue-based cell-free assay. Measurements were taken 1 hour after chemical dosing in a 48-well plate.NVS_OR_gSIGMA_NonSelective is one of one assay component(s) measured or calculated from the NVS_OR_gSIGMA_NonSelective assay. It is designed to make measurements of radioligand binding, a form of binding reporter, as detected with scintillation counting signals by Filter-based radiodetection technology.Data from the assay component NVS_OR_gSIGMA_NonSelective was analyzed into 1 assay endpoint. This assay endpoint, NVS_OR_gSIGMA_NonSelective, was analyzed in the positive analysis fitting direction relative to DMSO as the negative control and baseline of activity. Using a type of binding reporter, loss-of-signal activity can be used to understand changes in the binding as they relate to the gene Sigmar1. Furthermore, this assay endpoint can be referred to as a primary readout, because the performed assay has only produced 1 assay endpoint. To generalize the intended target to other relatable targets, this assay endpoint is annotated to the misc protein intended target family, where the subfamily is chaperone. […]

CCCCc1oc2ccccc2c1C(=O)c1cc(I)c(OCCN(CC)CC)c(I)c1
outcome [1]: inactive
outcome [2]: inactive
outcome [3]: inactive
outcome [4]: inactive
outcome [5]: inactive
outcome [6]: inactive
AC50 [7]: active: 66.8 µM
AC50 [8]: active: 35.3 µM
AC50 [9]: active: 139 µM
outcome [10]: inactive
outcome [11]: inactive
outcome [12]: inactive
AC50 [13]: active: 7.74 µM
AC50 [14]: active: 18.9 µM
AC50 [15]: active: 18.9 µM
outcome [16]: inactive
AC50 [17]: active: 0.402 µM
